Measurements as given in the supplement of paper PMC10849652.
Some of the results follow.

Protein sequences, listed by entry. Tags and fused reporters are not part of them. Lines headed by an entry give the natural chain unless they say otherwise; changes in a name come on top.
UniProt Q8N300: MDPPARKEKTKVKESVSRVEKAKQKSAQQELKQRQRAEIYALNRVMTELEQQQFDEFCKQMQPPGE
UniProt O43759: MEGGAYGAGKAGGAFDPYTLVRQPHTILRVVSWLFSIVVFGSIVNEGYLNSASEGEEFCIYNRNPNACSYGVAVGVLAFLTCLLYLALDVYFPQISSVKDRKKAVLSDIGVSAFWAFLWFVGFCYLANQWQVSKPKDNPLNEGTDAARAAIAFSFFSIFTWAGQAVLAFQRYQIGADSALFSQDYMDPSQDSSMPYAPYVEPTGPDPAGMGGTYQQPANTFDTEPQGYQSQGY
UniProt Q6PIF2: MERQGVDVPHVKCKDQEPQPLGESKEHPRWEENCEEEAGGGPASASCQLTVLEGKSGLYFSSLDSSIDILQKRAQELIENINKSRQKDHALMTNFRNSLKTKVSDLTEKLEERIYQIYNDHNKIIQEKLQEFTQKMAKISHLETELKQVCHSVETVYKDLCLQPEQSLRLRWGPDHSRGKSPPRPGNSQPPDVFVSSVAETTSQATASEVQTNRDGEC
UniProt P49842: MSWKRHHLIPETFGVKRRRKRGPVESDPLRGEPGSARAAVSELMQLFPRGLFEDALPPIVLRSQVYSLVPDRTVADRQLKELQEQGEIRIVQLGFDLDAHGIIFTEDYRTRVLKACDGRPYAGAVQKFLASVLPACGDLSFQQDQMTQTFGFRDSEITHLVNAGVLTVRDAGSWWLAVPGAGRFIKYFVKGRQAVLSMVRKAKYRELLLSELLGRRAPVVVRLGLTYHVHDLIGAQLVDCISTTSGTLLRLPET
UniProt Q15572: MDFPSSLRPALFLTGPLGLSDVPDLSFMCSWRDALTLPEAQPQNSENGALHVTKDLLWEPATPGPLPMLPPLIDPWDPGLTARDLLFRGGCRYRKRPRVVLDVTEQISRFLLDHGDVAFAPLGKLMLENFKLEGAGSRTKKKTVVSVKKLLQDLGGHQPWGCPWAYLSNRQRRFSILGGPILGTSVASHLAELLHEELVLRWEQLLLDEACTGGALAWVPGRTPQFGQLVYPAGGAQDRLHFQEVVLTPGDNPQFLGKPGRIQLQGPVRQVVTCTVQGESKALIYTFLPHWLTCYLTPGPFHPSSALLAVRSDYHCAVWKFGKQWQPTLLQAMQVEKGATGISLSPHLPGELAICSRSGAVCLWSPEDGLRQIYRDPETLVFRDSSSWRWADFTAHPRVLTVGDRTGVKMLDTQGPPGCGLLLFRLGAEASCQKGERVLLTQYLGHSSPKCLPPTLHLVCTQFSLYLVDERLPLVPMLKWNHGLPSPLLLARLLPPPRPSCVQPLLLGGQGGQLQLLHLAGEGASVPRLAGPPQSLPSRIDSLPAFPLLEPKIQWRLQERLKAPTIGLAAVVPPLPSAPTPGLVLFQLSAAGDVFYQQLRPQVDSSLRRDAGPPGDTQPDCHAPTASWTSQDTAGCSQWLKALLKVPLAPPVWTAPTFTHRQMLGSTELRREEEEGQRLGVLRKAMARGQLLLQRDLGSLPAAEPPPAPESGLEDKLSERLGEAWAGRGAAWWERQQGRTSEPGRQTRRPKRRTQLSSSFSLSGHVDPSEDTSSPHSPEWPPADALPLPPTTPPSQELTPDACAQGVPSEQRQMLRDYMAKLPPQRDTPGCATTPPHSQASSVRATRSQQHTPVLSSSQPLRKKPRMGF
UniProt Q9UBS9: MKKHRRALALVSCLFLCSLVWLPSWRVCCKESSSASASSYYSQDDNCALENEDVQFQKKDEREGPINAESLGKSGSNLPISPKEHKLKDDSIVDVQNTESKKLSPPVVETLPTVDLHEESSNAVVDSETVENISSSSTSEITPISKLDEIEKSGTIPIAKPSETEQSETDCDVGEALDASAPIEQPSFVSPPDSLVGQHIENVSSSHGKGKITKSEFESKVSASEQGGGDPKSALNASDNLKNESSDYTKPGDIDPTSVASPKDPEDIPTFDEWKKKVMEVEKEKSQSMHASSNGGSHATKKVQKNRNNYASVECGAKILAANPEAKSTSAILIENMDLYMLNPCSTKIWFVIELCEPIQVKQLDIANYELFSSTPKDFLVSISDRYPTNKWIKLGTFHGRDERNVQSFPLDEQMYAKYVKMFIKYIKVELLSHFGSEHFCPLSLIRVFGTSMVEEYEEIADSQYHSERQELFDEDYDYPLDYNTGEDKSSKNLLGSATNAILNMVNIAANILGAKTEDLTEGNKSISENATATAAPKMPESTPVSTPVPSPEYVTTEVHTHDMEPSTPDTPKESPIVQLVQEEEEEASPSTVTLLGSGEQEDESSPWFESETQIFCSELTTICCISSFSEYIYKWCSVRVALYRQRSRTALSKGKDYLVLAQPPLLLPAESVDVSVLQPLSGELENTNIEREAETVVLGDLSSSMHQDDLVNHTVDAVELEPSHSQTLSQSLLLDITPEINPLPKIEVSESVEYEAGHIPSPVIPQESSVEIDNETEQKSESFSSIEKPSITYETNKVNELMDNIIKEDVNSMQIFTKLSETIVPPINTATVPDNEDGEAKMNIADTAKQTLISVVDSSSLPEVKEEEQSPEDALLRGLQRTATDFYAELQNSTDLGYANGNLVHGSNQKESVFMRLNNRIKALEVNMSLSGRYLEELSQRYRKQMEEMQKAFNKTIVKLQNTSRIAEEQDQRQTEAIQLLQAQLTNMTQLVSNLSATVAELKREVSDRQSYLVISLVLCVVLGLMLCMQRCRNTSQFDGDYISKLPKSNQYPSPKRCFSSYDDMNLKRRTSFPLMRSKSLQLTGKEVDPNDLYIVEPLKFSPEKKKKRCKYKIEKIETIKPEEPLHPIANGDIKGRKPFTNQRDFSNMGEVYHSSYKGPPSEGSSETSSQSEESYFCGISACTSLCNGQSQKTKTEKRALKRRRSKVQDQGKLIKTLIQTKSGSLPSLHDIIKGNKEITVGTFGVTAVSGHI
UniProt O60506: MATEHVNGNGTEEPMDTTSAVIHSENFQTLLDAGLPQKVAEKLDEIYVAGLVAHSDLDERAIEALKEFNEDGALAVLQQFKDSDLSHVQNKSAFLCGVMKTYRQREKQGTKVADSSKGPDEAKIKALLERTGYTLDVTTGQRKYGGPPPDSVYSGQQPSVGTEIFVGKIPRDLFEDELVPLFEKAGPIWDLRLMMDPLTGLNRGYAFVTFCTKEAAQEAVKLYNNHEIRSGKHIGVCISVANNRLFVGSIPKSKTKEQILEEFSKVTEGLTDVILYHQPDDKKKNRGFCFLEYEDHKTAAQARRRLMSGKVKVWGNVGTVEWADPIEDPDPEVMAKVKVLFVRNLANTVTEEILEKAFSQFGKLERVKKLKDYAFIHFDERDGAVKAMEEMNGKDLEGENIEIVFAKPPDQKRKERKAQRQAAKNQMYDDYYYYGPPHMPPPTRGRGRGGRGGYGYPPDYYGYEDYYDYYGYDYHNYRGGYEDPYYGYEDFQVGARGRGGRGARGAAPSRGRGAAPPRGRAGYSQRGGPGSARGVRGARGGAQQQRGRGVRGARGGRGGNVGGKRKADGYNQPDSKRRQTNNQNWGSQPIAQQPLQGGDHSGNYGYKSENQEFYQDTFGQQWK
UniProt Q9UMX1: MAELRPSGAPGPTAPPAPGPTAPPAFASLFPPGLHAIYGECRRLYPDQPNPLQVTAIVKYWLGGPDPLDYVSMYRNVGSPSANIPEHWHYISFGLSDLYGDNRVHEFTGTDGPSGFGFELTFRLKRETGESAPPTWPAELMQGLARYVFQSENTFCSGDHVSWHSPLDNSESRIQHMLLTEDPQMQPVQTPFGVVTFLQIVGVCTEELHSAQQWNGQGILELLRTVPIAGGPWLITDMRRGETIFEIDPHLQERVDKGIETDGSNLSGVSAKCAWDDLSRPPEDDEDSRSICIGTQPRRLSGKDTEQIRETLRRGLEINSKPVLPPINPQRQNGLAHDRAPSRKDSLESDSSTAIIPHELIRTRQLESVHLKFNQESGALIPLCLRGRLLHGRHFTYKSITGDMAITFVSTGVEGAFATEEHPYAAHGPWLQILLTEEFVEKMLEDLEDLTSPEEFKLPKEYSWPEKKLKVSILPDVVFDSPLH
UniProt P0DMM9: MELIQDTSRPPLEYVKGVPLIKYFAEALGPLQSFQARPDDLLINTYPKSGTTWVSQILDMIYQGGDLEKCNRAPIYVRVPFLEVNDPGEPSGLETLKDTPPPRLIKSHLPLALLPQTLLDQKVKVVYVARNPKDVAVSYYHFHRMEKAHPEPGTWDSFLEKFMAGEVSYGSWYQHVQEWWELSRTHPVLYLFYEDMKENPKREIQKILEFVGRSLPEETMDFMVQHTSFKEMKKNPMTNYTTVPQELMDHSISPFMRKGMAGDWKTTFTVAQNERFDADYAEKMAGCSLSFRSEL
UniProt Q9H668: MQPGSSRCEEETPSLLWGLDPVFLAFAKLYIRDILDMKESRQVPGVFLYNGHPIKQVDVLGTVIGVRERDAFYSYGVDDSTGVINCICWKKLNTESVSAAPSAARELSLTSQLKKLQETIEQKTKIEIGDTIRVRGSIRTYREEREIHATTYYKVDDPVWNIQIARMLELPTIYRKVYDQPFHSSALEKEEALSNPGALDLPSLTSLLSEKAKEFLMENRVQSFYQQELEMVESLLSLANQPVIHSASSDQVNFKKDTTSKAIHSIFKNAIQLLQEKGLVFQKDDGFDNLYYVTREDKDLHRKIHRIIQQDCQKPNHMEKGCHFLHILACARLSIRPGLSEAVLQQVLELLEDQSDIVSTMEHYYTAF
UniProt Q8NFX7: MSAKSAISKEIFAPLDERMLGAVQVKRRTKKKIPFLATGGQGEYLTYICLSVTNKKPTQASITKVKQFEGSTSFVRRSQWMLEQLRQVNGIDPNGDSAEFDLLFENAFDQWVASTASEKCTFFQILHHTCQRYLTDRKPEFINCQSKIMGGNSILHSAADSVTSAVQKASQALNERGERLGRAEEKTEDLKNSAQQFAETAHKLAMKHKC
UniProt Q9P289: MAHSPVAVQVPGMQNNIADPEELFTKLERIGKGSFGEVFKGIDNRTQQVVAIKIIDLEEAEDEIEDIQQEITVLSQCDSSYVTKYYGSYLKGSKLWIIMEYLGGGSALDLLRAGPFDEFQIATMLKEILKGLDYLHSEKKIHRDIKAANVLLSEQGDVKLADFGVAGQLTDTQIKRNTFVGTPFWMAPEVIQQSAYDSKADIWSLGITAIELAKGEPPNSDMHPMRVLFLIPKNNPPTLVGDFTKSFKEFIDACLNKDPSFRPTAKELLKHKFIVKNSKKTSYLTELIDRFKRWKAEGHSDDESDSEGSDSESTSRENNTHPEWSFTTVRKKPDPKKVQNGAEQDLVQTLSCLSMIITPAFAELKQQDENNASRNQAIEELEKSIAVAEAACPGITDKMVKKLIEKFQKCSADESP
UniProt O75716, whole entry, looked up: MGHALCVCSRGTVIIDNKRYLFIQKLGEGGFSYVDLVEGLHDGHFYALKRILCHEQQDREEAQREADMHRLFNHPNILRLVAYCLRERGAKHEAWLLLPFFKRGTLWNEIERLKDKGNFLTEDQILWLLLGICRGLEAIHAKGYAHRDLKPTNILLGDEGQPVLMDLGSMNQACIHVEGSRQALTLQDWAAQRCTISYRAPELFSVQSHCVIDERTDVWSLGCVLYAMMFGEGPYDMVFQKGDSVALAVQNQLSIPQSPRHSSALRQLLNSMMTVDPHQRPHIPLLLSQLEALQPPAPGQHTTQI
UniProt O94804: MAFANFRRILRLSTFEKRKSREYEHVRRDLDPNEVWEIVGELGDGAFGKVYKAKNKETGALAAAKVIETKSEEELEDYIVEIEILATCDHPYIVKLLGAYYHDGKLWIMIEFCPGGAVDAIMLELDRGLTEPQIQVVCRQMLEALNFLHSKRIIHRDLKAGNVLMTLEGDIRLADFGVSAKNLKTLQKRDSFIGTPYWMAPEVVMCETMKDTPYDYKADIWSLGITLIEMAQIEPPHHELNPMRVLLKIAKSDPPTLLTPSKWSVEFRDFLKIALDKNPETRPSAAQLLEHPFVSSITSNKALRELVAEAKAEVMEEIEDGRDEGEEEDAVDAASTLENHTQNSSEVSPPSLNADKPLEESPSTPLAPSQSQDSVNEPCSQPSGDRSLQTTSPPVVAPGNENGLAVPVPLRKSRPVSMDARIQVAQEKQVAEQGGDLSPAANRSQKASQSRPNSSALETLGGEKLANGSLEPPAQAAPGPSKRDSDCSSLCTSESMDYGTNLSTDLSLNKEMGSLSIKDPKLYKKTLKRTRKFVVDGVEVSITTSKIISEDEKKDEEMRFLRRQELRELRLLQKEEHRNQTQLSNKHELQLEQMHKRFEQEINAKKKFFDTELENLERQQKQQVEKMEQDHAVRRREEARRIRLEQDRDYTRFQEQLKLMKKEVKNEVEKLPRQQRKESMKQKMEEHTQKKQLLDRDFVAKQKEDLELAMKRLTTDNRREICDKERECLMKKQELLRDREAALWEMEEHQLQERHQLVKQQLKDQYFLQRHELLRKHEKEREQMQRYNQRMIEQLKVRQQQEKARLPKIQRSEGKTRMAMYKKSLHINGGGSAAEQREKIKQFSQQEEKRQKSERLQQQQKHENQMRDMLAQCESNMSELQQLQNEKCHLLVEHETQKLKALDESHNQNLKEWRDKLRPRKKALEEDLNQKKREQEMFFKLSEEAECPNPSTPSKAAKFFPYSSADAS

Compound: O=C1NC(=O)C(c2cnc3ccccn23)=C1c1cn2c3c(cc(F)cc13)CN(C(=O)N1CCCCC1)CC2
Experiment: log2 fold change, soluble protein after heating vs DMSO (PISA); higher = thermal stabilisation; K562 lysate, 10 uM; active = over 0.2 and 3.5 SD of the protein, either way, in both replicates (recomputed)
How it was run: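 K562 pellets were dounce-homogenised in PBS pH 7.4 containing 1 mM MgCl2, and the crude extract, at 1 mg/mL protein, was exposed to 10 μM compound for 30 min. Aliquots were heated for 3 min across 48°C-58°C, pooled, brought to 0.5% NP-40 at 4°C and spun at 21,000xg for 90 min, with the supernatant taken as soluble protein. TMTpro 16plex LC-MS/MS with equalised channel sums quantified that protein. Values are log-two fold changes in thermal stability relative to solvent controls, taken from duplicates.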

log2 fold change, inactive:
SVBP (UniProt Q8N300) 0.008
SYNGR1 isoform 2 (UniProt O43759) -0.029
SYCE2 (UniProt Q6PIF2) -0.221
STS (UniProt P08842) 0.208
STK19 (UniProt P49842) -0.11
TAF1C (UniProt Q15572) 0.088
SUCO isoform 2 (UniProt Q9UBS9) -0.227
SYNCRIP isoform 3 (UniProt O60506) -0.003
SUN2 isoform 2 (UniProt Q9UH99) -0.059
STK3 isoform 2 (UniProt Q13188) 0.025
STK38L (UniProt Q9Y2H1) 0.022
SUPT3H (UniProt O75486) -0.074
SUFU (UniProt Q9UMX1) 0.238
TADA2A (UniProt O75478) -0.044
SULT1A3 isoform 3 (UniProt P0DMM9) -0.023
STN1 (UniProt Q9H668) 0.126
STXBP6 (UniProt Q8NFX7) -0.04
STK26 isoform 3 (UniProt Q9P289) 0.014
SUSD1 isoform 2 (UniProt Q6UWL2) -0.066
STK16 (UniProt O75716) 0.232
STK10 (UniProt O94804) 0.398

As a working copy, part of the list above:
log2 fold change, inactive:
TAF1C (UniProt Q15572) 0.088
SUCO isoform 2 (UniProt Q9UBS9) -0.227
SYNCRIP isoform 3 (UniProt O60506) -0.003
SUN2 isoform 2 (UniProt Q9UH99) -0.059
STK3 isoform 2 (UniProt Q13188) 0.025
STK38L (UniProt Q9Y2H1) 0.022
